For this assay, the target named is AKT1 (human (endogenous in HCT116)) (UniProt P31749). As to the kind of experiment: co-IP; HCT116 whole-cell lysates (500 μg) incubated overnight at 4 °C with 2 μg anti-STK32C or anti-HSP90 antibodies plus protein A/G agarose beads; Western blot; also after STK32C siRNA.

Protein sequences, listed by entry. Tags and fused reporters are not part of them.
UniProt P31749: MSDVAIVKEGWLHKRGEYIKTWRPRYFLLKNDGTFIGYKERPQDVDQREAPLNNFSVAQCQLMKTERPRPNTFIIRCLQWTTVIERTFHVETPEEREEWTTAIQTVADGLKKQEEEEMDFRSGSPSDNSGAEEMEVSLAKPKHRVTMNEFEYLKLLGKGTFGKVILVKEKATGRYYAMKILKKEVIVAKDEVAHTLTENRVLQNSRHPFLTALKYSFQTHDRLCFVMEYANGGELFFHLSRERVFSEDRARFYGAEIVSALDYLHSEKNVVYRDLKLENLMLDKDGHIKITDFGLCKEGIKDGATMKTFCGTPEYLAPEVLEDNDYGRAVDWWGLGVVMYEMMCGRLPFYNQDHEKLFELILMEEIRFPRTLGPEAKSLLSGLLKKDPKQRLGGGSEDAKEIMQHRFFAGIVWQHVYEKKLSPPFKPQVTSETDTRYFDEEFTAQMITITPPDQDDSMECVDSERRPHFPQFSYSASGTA
UniProt Q86UX6: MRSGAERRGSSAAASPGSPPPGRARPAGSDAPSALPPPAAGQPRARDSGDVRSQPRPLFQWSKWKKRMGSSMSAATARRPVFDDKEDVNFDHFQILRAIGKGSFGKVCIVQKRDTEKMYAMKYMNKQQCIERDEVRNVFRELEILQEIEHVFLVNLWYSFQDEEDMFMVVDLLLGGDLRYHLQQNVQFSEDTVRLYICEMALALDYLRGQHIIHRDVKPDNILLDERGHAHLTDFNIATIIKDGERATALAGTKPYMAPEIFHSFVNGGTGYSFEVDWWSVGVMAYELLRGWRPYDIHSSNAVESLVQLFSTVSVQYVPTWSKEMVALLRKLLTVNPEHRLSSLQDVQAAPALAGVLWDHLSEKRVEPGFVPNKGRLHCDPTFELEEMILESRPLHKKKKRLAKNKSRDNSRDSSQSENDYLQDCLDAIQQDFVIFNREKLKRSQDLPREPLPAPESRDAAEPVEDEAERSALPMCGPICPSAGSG

No constants are given. Whether binding was seen depends on the method and setting. In cells and extracts the contact can be indirect. Some results given as binding are weak or reduced against the parent protein; the word gives no strength.

In the case of “serine/threonine kinase 32C (STK32C) (from UniProt Q86UX6 1-486)”, the binding result is on record as “binds”.

(Values after article PMC12594568.)
